The other results are listed elsewhere or left out. Residues, ends and D or L forms follow the SMILES beside them. *: point of attachment. Cbz = O=C(OCc1ccccc1)*
How the values were obtained:
Assay in all cases: log2 fold change, soluble protein after heating vs DMSO (PISA); higher = thermal stabilisation; K562 cells, 10 uM, 30 min; active = over 0.2 and 3.5 SD of the protein, either way, in both replicates (recomputed)
IRAK-1-4 Inhibitor I = compound: C1COCCN1CCN2C3=CC=CC=C3N=C2NC(=O)C4=CC(=CC=C4)[N+](=O)[O-] [IRAK-1-4 Inhibitor I]
Method in brief: (§1)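 Quantification of soluble protein used TMTpro 16plex LC-MS/MS, with channel sums equalised. Samples were the supernatant after 21,000xg for 90 min of pooled aliquots from K562 cells (2×10^6 cells/mL) treated with 10 μM compound for 30 min, heated for 3 min over 48°C-58°C, and extracted in PBS with 0.5% NP-40 at 4°C. Values, from duplicates, describe thermal stability against control samples on a log2 fold-change scale.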

Sequences of proteins named here, by UniProt entry; tags and fusion partners are left off. A change or cut given only in a name is not applied to a line headed by its entry.
UniProt Q9H446: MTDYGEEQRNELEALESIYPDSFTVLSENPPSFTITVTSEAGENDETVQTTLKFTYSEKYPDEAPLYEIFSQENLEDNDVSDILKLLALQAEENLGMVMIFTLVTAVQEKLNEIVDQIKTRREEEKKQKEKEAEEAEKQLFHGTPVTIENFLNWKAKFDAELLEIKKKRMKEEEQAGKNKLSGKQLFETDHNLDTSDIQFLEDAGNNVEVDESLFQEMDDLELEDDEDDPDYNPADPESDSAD
UniProt P21912: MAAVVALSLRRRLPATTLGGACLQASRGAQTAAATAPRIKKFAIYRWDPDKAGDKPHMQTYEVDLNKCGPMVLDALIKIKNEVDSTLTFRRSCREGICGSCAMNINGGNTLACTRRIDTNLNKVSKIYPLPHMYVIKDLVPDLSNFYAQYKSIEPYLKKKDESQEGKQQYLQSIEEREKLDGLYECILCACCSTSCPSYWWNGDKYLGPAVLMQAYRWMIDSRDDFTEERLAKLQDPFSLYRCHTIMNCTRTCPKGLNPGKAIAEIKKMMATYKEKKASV
UniProt Q15436: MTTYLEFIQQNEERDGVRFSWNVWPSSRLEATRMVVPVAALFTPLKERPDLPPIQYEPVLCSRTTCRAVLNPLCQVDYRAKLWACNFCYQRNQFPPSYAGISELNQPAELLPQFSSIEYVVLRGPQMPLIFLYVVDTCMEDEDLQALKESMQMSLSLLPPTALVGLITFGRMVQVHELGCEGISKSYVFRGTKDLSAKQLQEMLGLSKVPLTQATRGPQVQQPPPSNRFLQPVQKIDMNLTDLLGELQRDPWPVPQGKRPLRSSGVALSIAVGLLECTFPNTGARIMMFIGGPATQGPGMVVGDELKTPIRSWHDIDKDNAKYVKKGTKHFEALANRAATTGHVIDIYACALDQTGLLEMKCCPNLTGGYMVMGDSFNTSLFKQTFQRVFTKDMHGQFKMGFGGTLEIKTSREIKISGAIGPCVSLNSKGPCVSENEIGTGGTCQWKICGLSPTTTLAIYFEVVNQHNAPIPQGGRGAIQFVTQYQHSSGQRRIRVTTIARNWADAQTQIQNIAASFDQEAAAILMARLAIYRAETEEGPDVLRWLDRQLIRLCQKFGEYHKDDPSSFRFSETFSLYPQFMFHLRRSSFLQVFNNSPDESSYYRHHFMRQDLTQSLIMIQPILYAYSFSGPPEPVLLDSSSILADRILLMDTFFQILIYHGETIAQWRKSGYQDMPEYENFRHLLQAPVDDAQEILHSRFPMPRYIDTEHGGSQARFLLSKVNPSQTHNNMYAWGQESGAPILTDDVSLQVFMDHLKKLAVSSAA
UniProt Q96T51: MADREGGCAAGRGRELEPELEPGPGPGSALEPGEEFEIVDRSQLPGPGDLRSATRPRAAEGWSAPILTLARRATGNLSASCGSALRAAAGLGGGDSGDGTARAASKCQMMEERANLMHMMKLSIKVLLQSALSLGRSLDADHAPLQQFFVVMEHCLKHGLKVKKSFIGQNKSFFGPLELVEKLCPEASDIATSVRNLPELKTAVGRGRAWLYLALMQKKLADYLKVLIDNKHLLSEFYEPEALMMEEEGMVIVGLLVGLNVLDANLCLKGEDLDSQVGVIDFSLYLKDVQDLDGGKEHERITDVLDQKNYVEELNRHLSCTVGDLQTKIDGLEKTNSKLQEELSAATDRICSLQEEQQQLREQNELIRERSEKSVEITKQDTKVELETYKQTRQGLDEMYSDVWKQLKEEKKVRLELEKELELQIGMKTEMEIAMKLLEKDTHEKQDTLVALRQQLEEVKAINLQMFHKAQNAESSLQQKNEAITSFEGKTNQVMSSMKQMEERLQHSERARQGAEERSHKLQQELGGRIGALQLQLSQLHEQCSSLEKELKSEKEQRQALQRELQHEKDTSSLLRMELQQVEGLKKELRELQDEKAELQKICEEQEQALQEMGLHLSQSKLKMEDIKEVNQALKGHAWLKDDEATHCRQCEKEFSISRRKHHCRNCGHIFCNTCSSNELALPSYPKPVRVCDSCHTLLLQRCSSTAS
UniProt O00767: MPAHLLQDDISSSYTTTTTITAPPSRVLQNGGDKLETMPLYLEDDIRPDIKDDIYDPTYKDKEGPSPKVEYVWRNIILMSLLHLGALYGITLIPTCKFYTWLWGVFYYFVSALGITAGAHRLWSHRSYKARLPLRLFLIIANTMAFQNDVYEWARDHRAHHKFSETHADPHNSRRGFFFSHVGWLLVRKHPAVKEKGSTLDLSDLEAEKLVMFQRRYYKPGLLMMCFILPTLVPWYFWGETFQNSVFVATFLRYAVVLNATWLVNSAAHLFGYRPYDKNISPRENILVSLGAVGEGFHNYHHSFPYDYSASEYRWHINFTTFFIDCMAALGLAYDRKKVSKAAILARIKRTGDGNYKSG
UniProt Q96IZ7: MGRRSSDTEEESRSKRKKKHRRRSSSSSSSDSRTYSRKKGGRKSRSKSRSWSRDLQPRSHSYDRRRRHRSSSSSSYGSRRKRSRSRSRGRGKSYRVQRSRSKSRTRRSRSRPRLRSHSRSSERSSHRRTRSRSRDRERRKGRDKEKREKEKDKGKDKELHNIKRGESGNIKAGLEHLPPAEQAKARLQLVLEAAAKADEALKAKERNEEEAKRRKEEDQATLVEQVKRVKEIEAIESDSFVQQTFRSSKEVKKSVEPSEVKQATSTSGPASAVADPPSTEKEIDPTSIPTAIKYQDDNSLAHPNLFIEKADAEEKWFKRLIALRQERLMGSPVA
UniProt Q15050: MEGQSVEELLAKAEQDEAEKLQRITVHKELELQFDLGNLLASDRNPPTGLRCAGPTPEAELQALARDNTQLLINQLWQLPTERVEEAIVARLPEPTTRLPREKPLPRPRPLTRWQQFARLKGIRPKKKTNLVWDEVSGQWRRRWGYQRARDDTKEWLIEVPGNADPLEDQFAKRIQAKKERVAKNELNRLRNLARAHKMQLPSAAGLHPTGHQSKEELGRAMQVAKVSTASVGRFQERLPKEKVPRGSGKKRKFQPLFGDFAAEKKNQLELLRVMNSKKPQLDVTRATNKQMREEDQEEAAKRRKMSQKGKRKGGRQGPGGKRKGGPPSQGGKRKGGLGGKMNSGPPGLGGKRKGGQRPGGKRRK
UniProt O43818: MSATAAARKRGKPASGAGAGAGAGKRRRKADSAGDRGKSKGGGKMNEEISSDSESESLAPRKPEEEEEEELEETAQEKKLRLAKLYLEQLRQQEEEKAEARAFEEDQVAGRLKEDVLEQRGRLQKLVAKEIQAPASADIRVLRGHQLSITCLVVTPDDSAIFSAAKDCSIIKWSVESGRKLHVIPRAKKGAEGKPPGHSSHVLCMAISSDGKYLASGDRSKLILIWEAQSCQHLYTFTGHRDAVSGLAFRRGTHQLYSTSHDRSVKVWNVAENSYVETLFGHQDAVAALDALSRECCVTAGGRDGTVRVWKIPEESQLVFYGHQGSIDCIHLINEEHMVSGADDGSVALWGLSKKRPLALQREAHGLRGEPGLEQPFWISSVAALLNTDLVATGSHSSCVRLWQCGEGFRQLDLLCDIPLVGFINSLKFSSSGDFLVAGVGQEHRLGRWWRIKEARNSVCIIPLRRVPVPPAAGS
UniProt O00560: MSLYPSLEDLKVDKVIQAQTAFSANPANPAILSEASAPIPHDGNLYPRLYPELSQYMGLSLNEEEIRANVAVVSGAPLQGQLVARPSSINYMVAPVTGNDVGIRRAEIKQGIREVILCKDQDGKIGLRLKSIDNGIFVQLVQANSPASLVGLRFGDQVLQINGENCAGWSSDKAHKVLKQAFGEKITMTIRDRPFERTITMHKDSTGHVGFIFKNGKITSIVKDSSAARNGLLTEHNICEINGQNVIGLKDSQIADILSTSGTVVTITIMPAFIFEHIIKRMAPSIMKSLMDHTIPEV
UniProt Q9BY42: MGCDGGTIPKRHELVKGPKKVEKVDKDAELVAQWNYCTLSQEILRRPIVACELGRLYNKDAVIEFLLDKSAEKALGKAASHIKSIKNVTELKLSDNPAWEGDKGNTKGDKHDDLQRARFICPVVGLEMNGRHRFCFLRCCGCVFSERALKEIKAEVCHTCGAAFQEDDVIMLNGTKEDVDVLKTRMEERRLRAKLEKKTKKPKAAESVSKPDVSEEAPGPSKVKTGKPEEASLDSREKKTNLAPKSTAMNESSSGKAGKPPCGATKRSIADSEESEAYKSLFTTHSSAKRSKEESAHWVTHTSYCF
UniProt Q9NTJ5: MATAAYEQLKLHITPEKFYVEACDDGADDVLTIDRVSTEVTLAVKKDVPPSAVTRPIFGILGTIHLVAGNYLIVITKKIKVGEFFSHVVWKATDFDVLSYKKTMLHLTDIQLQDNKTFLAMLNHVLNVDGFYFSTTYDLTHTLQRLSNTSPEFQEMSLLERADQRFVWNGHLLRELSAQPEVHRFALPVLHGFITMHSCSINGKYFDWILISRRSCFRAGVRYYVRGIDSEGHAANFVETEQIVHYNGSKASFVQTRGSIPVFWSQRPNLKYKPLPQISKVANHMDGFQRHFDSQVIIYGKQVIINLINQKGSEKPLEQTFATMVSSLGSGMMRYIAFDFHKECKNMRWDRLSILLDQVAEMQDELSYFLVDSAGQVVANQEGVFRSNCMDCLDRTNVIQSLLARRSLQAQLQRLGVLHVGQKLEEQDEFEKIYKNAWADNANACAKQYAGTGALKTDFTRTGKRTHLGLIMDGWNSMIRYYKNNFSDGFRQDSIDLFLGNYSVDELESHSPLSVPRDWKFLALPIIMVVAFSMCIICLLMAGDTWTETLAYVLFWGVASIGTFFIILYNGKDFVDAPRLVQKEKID
UniProt Q8WXD2: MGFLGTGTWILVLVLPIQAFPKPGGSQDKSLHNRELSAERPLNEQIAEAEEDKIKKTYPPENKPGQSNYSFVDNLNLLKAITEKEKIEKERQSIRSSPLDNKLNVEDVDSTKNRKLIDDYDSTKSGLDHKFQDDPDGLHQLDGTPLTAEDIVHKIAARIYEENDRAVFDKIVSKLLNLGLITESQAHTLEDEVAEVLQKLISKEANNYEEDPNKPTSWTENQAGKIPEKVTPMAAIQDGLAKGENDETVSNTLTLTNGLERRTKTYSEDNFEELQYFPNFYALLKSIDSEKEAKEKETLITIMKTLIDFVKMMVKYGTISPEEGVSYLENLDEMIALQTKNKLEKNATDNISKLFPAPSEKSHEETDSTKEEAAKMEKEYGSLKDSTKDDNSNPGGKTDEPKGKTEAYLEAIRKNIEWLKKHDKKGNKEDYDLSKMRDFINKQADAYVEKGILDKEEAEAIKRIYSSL
UniProt Q7L4I2: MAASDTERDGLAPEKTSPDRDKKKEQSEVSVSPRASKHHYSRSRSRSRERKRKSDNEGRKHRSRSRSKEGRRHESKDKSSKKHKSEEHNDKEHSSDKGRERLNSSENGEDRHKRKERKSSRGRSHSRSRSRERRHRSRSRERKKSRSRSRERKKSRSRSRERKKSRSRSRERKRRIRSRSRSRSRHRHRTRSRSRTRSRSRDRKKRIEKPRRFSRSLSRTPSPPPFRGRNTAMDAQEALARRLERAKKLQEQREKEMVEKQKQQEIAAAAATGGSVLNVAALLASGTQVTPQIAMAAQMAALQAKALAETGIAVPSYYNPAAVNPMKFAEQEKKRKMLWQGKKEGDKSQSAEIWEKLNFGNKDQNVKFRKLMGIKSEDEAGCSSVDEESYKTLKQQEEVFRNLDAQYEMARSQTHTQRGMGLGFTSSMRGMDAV
UniProt O43819: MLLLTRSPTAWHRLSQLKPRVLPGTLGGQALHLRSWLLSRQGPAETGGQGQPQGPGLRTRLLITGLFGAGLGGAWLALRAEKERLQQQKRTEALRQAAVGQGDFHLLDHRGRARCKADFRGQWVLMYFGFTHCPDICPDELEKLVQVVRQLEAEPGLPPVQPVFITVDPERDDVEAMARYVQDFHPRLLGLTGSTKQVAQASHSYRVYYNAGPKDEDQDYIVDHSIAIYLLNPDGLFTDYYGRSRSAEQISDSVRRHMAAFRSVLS
UniProt Q96ER3: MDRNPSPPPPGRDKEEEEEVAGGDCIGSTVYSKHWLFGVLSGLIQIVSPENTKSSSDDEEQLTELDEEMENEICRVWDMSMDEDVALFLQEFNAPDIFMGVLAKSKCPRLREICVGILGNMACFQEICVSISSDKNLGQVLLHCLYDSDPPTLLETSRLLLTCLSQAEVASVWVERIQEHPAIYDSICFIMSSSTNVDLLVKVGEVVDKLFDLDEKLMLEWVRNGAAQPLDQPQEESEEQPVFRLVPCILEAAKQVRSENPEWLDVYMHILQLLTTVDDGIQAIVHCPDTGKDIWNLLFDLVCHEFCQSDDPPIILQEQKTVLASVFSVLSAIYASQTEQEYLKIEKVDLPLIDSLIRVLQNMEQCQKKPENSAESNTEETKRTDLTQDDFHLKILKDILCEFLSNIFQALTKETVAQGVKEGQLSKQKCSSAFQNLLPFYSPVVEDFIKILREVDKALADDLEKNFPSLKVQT

ibrutinib = compound: C=CC(=O)N1CCC[C@@H](n2nc(-c3ccc(Oc4ccccc4)cc3)c3c(N)ncnc32)C1 [ibrutinib]
Method in brief: as §1

[1] = compound: CC(=O)c1cnc2ccc(-c3cc(Cl)c(O)c(Cl)c3)nc2c1N[C@H]1CC[C@H](CN(C)C)CC1
Method in brief: as §1

ralimetinib = compound: CC(C)(C)Cn1c(N)nc2ccc(-c3[nH]c(C(C)(C)C)nc3-c3ccc(F)cc3)nc21 [ralimetinib]
Method in brief: as §1

[2] = compound: CC(C)(O)CC(=O)NCCn1ccc2ncnc(Nc3ccc(Oc4cccc(C(F)(F)F)c4)c(Cl)c3)c21
Method in brief: as §1

[3] = compound: CC(C)C1=C2N=C(C=C(N2N=C1)NCC3=CC=CC=C3)NCCCCCCN
Method in brief: as §1

[4] = compound: CC(C)C[C@@H](C=O)NC(=O)[C@H](CC(C)C)NC(=O)[C@H](CC(C)C)NC(=O)OCc1ccccc1
Method in brief: as §1

pinometostat = compound: CC(C)N(C[C@H]1O[C@@H](n2cnc3c(N)ncnc32)[C@H](O)[C@@H]1O)[C@H]1C[C@@H](CCc2nc3cc(C(C)(C)C)ccc3[nH]2)C1 [pinometostat]
Method in brief: as §1

[5] = compound: CC1=C(C(CC(=O)N1)C2=CC=C(C=C2)C(F)(F)F)C(=O)NC3=C(C=C4C(=C3)C=NN4)F
Method in brief: as §1

[6] = compound: CC1=C(C2=C(C=C1)C(=O)C3=CC=CC=C3N2CCCN)C
Method in brief: as §1

[7] = compound: CC1=C(C=C(C=C1)NC(=O)C2=CC(=CC=C2)C(C)(C)C#N)NC3=CC4=C(C=C3)N=CN(C4=O)C
Method in brief: as §1

[8] = compound: CC1=C(C=C(C=C1)NC(=O)C2=CC(=CC=C2)N(C)C)NC(=O)C3=CC=C(C=C3)O
Method in brief: as §1

[9] = compound: CC1=CC=C(C=C1)SC2=C3C=C(SC3=CN=C2)C(=O)N
Method in brief: as §1

[10] = compound: CC1=NC(=CC=C1)C2=C(N=C(N2)C(C)(C)C)C3=CC4=NC=CN=C4C=C3
Method in brief: as §1

Nexturastat A = compound: CCCCN(Cc1ccc(C(=O)NO)cc1)C(=O)Nc1ccccc1 [Nexturastat A]
Method in brief: as §1

vemurafenib = compound: CCCS(=O)(=O)Nc1ccc(F)c(C(=O)c2c[nH]c3ncc(-c4ccc(Cl)cc4)cc23)c1F [vemurafenib]
Method in brief: as §1

[11] = compound: CCCS(=O)(=O)Nc1ccc(F)c(C(=O)c2c[nH]c3ncc(Cl)cc23)c1F
Method in brief: as §1

[12] = compound: CCCc1cc(C)[nH]c(=O)c1CNC(=O)c1cc(-c2ccnc(N3CCN(C)CC3)c2)cc2c1cnn2C(C)C
Method in brief: as §1

givinostat = compound: CCN(CC)Cc1ccc2cc(COC(=O)Nc3ccc(C(=O)NO)cc3)ccc2c1 [givinostat]
Method in brief: as §1

barasertib = compound: CCN(CCCOc1ccc2c(Nc3cc(CC(=O)Nc4cccc(F)c4)[nH]n3)ncnc2c1)CCOP(=O)(O)O [barasertib]
Method in brief: as §1

| Target | log2 fold change (IRAK-1-4 Inhibitor I) | log2 fold change (ibrutinib) | log2 fold change [1] | log2 fold change (ralimetinib) | log2 fold change [2] | log2 fold change [3] | log2 fold change [4] | log2 fold change (pinometostat) | log2 fold change [5] | log2 fold change [6] | log2 fold change [7] | log2 fold change [8] | log2 fold change [9] | log2 fold change [10] | log2 fold change (Nexturastat A) | log2 fold change (vemurafenib) | log2 fold change [11] | log2 fold change [12] | log2 fold change (givinostat) | log2 fold change (barasertib) |
| --- | --- | --- | --- | --- | --- | --- | --- | --- | --- | --- | --- | --- | --- | --- | --- | --- | --- | --- | --- | --- |
| RWDD1 (UniProt Q9H446) | inactive: 0.003 | inactive: -0.04 | inactive: -0.019 | inactive: -0.089 | inactive: 0.014 | inactive: -0.016 | inactive: -0.056 | inactive: -0.036 | inactive: -0.019 | inactive: 0.03 | inactive: -0.028 | inactive: 0.013 | inactive: 0.028 | inactive: 0.044 | inactive: -0.059 | inactive: 0.003 | inactive: 0.071 | inactive: -0.019 | inactive: -0.019 | inactive: 0.041 |
| SDHB (UniProt P21912) | inactive: 0.066 | inactive: 0.022 | inactive: 0.017 | inactive: -0.037 | inactive: -0.025 | inactive: 0.068 | inactive: 0.031 | inactive: -0.026 | inactive: 0.009 | inactive: -0.049 | inactive: 0.003 | inactive: 0.008 | inactive: 0 | inactive: -0.01 | inactive: -0.036 | inactive: 0.016 | inactive: 0.011 | inactive: 0.141 | inactive: -0.024 | inactive: 0.012 |
| SEC23A (UniProt Q15436) | inactive: 0.06 | inactive: 0 | inactive: 0.077 | inactive: 0.026 | inactive: -0.123 | inactive: -0.014 | inactive: -0.006 | inactive: -0.004 | – | inactive: 0.121 | inactive: 0.005 | inactive: -0.067 | inactive: -0.027 | inactive: -0.041 | inactive: 0.008 | inactive: 0.049 | inactive: 0.06 | inactive: 0.003 | inactive: -0.025 | inactive: 0.027 |
| RUFY1 (UniProt Q96T51) | inactive: -0.019 | inactive: -0.002 | inactive: 0.101 | inactive: 0.034 | inactive: -0.092 | inactive: -0.182 | inactive: 0.011 | inactive: 0.083 | – | inactive: -0.014 | inactive: 0.013 | inactive: -0.011 | inactive: -0.022 | inactive: -0.035 | inactive: 0.063 | inactive: 0.043 | inactive: 0.059 | inactive: 0.029 | inactive: 0.031 | inactive: 0.027 |
| SCD (UniProt O00767) | inactive: 0.048 | inactive: -0.023 | inactive: 0.008 | inactive: -0.148 | inactive: -0.046 | inactive: -0.222 | inactive: 0.101 | inactive: 0 | – | inactive: -0.027 | inactive: -0.076 | inactive: 0.037 | inactive: 0.038 | inactive: 0.078 | inactive: -0.121 | inactive: 0.022 | inactive: -0.053 | inactive: -0.021 | active: -0.457 | inactive: 0.003 |
| RSRC1 (UniProt Q96IZ7) | inactive: -0.062 | inactive: 0.034 | inactive: -0.178 | inactive: -0.01 | inactive: 0.056 | inactive: -0.071 | inactive: 0.009 | inactive: -0.017 | – | inactive: 0.047 | inactive: 0.041 | inactive: 0.013 | inactive: 0.006 | inactive: 0.056 | inactive: 0.02 | inactive: -0.046 | inactive: 0.004 | inactive: -0.026 | inactive: 0.019 | inactive: -0.031 |
| RRS1 (UniProt Q15050) | inactive: -0.084 | inactive: 0.04 | inactive: 0.217 | inactive: 0.118 | inactive: 0.229 | inactive: 0.312 | inactive: 0.067 | inactive: 0.297 | – | active: -1 | inactive: 0.024 | inactive: 0.021 | inactive: -0.043 | inactive: -0.163 | inactive: 0.31 | inactive: -0.174 | inactive: -0.03 | inactive: 0.104 | inactive: 0.093 | inactive: -0.101 |
| RSF1 (UniProt Q96T23) | inactive: -0.188 | inactive: -0.054 | inactive: 0.043 | inactive: 0.019 | inactive: -0.175 | inactive: -0.114 | inactive: -0.058 | inactive: -0.123 | – | active: -1.48 | inactive: 0.111 | inactive: -0.112 | inactive: -0.015 | inactive: 0.217 | inactive: -0.091 | inactive: 0.119 | inactive: 0.052 | inactive: 0.029 | inactive: 0.084 | inactive: 0.095 |
| RRP9 (UniProt O43818) | inactive: -0.043 | inactive: 0.017 | inactive: -0.062 | inactive: 0.014 | inactive: 0.133 | inactive: -0.04 | inactive: -0.002 | inactive: 0.01 | – | active: -0.432 | inactive: -0.03 | inactive: 0.057 | inactive: -0.046 | inactive: -0.081 | inactive: 0.095 | inactive: -0.026 | inactive: -0.074 | inactive: 0.009 | inactive: 0.047 | inactive: -0.084 |
| SDCBP (UniProt O00560) | inactive: 0.021 | inactive: 0.139 | inactive: -0.02 | inactive: -0.036 | inactive: -0.064 | active: -0.671 | inactive: 0.181 | inactive: 0.057 | – | inactive: -0.007 | inactive: 0.007 | inactive: 0.021 | inactive: 0.009 | inactive: 0.025 | inactive: 0.001 | inactive: 0.051 | inactive: 0.041 | inactive: -0.176 | inactive: -0.027 | inactive: -0.039 |
| RTF2 (UniProt Q9BY42) | inactive: 0 | inactive: -0.096 | inactive: -0.017 | inactive: -0.022 | inactive: 0.032 | inactive: 0.164 | inactive: 0.098 | inactive: -0.059 | – | inactive: -0.054 | inactive: 0 | inactive: -0.028 | inactive: 0.019 | inactive: 0.04 | inactive: 0.004 | inactive: 0.129 | inactive: 0.044 | inactive: -0.019 | inactive: 0.017 | inactive: 0.072 |
| SACM1L (UniProt Q9NTJ5) | inactive: 0.008 | inactive: -0.031 | inactive: -0.022 | inactive: 0.064 | inactive: -0.007 | active: -0.262 | inactive: -0.01 | inactive: -0.042 | – | inactive: 0.029 | inactive: 0.08 | inactive: -0.024 | inactive: -0.004 | inactive: 0.031 | inactive: -0.03 | inactive: 0.052 | inactive: 0.069 | inactive: 0.043 | inactive: 0.028 | inactive: 0.049 |
| SCG3 (UniProt Q8WXD2) | inactive: -0.003 | inactive: 0.035 | inactive: -0.107 | inactive: 0.061 | inactive: 0.039 | inactive: 0.203 | inactive: 0.038 | inactive: -0.139 | – | inactive: -0.359 | inactive: 0.134 | inactive: -0.105 | inactive: -0.011 | inactive: -0.05 | inactive: -0.071 | inactive: 0.027 | inactive: -0.041 | inactive: 0.11 | inactive: -0.043 | inactive: 0.013 |
| RSRC2 (UniProt Q7L4I2) | inactive: 0.03 | inactive: -0.035 | active: -0.284 | inactive: 0.012 | inactive: -0.033 | inactive: -0.013 | inactive: -0.026 | inactive: -0.019 | – | inactive: 0.016 | inactive: -0.048 | inactive: 0.04 | inactive: -0.058 | inactive: 0 | inactive: 0.015 | inactive: 0.007 | inactive: 0.003 | inactive: -0.063 | inactive: -0.013 | inactive: 0.01 |
| SCO2 (UniProt O43819) | inactive: 0.02 | inactive: 0.014 | inactive: -0.06 | inactive: 0.142 | inactive: -0.154 | inactive: -0.071 | inactive: 0.024 | inactive: 0.054 | – | inactive: 0.07 | active: -0.487 | inactive: -0.079 | inactive: 0.029 | inactive: -0.003 | inactive: 0.269 | inactive: 0.05 | inactive: 0.029 | inactive: 0.059 | inactive: 0.03 | inactive: 0.153 |
| SAAL1 (UniProt Q96ER3) | inactive: 0.019 | inactive: -0.035 | active: 0.578 | inactive: -0.033 | inactive: -0.112 | inactive: 0.012 | inactive: 0.032 | inactive: 0.073 | – | active: 0.239 | inactive: 0.004 | inactive: -0.008 | inactive: 0.006 | inactive: 0.009 | inactive: -0.078 | inactive: -0.017 | inactive: 0.035 | inactive: -0.014 | inactive: -0.059 | inactive: 0.046 |

Retrieved one by one from the entries so far, 2 records:

| Target | log2 fold change (IRAK-1-4 Inhibitor I) | log2 fold change (ibrutinib) | log2 fold change [1] | log2 fold change (ralimetinib) | log2 fold change [2] | log2 fold change [3] | log2 fold change [4] | log2 fold change (pinometostat) | log2 fold change [5] | log2 fold change [6] | log2 fold change [7] | log2 fold change [8] | log2 fold change [9] | log2 fold change [10] | log2 fold change (Nexturastat A) | log2 fold change (vemurafenib) | log2 fold change [11] | log2 fold change [12] | log2 fold change (givinostat) | log2 fold change (barasertib) |
| --- | --- | --- | --- | --- | --- | --- | --- | --- | --- | --- | --- | --- | --- | --- | --- | --- | --- | --- | --- | --- |
| RSRC2 (UniProt Q7L4I2) | inactive: 0.03 | inactive: -0.035 | active: -0.284 | inactive: 0.012 | inactive: -0.033 | inactive: -0.013 | inactive: -0.026 | inactive: -0.019 | – | inactive: 0.016 | inactive: -0.048 | inactive: 0.04 | inactive: -0.058 | inactive: 0 | inactive: 0.015 | inactive: 0.007 | inactive: 0.003 | inactive: -0.063 | inactive: -0.013 | inactive: 0.01 |
| SDCBP (UniProt O00560) | inactive: 0.021 | inactive: 0.139 | inactive: -0.02 | inactive: -0.036 | inactive: -0.064 | active: -0.671 | inactive: 0.181 | inactive: 0.057 | – | inactive: -0.007 | inactive: 0.007 | inactive: 0.021 | inactive: 0.009 | inactive: 0.025 | inactive: 0.001 | inactive: 0.051 | inactive: 0.041 | inactive: -0.176 | inactive: -0.027 | inactive: -0.039 |
